In patent US20120253017A1:
These are yes or no findings as the source states them, for the method shown. Some results given as binding are weak or reduced against the parent protein; the word gives no strength.

By UniProt entry, the sequences of proteins in these tests, tags left out. Residues count along the entry.
UniProt P10721, residues 26-524: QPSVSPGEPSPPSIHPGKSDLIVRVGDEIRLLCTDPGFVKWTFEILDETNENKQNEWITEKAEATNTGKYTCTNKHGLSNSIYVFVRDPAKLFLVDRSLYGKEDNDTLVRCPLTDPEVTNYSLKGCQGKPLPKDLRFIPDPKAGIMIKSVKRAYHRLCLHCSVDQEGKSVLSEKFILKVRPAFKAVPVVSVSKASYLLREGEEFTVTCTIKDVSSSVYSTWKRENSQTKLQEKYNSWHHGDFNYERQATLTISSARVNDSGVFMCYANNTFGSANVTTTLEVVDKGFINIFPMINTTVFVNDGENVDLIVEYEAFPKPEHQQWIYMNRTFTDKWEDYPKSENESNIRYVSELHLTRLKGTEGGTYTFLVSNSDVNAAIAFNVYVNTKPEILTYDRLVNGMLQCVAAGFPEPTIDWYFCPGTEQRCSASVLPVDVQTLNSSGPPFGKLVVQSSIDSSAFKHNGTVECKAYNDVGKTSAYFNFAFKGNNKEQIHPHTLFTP
UniProt P05532, residues 25-979: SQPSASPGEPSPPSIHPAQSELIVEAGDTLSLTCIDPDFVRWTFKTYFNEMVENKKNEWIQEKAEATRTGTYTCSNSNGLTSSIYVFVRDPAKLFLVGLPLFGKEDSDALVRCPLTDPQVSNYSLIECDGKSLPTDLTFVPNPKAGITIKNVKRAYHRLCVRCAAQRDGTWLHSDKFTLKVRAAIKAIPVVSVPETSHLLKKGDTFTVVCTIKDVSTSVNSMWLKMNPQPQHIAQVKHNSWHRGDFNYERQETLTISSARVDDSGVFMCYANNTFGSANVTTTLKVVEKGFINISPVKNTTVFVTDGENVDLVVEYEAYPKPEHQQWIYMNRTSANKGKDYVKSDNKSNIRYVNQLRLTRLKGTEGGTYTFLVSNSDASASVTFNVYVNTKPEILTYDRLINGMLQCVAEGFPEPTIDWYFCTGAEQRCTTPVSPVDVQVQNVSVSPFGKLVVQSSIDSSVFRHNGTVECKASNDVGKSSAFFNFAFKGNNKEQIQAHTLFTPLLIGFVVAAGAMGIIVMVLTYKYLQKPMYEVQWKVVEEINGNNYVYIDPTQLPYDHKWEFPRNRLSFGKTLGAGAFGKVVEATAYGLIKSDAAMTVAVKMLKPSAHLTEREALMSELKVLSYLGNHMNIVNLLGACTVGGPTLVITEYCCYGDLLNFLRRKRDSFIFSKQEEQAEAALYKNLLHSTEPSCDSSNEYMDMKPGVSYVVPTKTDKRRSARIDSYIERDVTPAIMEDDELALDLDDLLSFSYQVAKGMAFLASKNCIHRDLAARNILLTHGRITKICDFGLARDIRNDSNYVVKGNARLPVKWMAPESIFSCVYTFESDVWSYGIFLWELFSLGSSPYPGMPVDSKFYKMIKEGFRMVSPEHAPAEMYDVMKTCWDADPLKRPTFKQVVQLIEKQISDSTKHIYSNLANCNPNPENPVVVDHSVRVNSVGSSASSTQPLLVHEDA

Assays:
[1] = target: human c-kit (recombinant, on BIAcore chip or beads) (human) (UniProt P10721); assay: BIAcore 2000, 1 uM dAb
[2] = target: mouse c-kit on EML cells (mouse) (UniProt P05532); assay: flow cytometry, EML cells; inconclusive, binds on 2 of 4 occasions
[3] = target: mouse c-kit on EML cells (mouse) (UniProt P05532); assay: flow cytometry, EML cells; inconclusive, binds on 2 of 3 occasions
[4] = target: mouse c-kit on EML cells (mouse) (UniProt P05532); assay: flow cytometry, EML cells

B1: DOM28m-7 (protein)
VH: EVQLLESGGGLVQPGGSLRLSCAASGFTFSNYAMGWVRQAPGKGLEWVSSISSSGFATYYADSVKGRFTISRDNSKNTLYLQMNSLRAEDTAVYYCAKSESRTFKAFDYWGQGTLVTVSS
Question: What does the source list for B1?
Answer: binding [1]: binds; binding [2]: binds

B2: DOM28m-23 (protein)
VH: EVRLLESGGGLVQPGGSLRLSCAASGFTFRDYVMVWVRQAPGKGLEWVSAIAPTGGYTYYADSVKGRFTISRDNSKNTLYLQMNSLRAEDTAVYYCAKSLRTWLSEDLPFDYWGQGTLVTVSS
Question: For B2, which binding [3] is on record?
Answer: binds

B3: DOM28m-52 (protein)
chain: EVQLLESGGGLVQPGGSLRLSCAASGFTFSSYNMSWVRQAPGKGLEWVSWISSSGLMTYYADSVKGRFTISRDNSKNTLYLQMNSLRAEDTAVYYCAKTSLGSHPSRRPFDYWGQGTLVTVSS
Question: B3 was tested. Which binding [4] did it give?
Answer: binds

B4: DOM28m-53 (protein)
VH: EVQLLESGGGLVQPGGSLRLSCAASGFTFSDYMMMWVRQAPGKGLEWVSTIDHAGAVTYYADSVKGRFTISRDNSKNTLYLQMNSLRAEDTAVYYCAKNQPVWQANQSRRFDYWGQGTLVTVSS
Question: Which binding [4] does the source give for B4 here?
Answer: binds
